# Assay results from patent US6635642B1, “PARP inhibitors, pharmaceutical compositions comprising same, and methods of using same” (Guilford Pharmaceuticals Inc., priority 1997, dated 2003).
# Tests used:
# male Long-Evans rats [1] = experiment: Arterial blood gases and mean arterial blood pressure in the focal cerebral ischemia study; assay type: in vivo, rat; details: for PaCO2 / PaO2 / pH (arterial): 30 min after MCA occlusion; for MABP Ischemia: average during occlusion; for MABP Steady State: just prior to occlusion
# male Long-Evans rats [2] = experiment: Laser Doppler microvascular blood flow in right parietal cortex during occlusion; assay type: in vivo, rat; details: control 20.8±7.7%
smiles,measurement,setting,value
"O=C1NCCc2c(OCCCCN3CCCCC3)cccc21 [DPQ, 3,4-dihydro-5-[4-(1-piperidinyl)-butoxy]-1(2H)-isoquinolinone]",PaCO2,male Long-Evans rats [1]; 5 mg/kg-treated group,38. mm Hg
same,PaO2,male Long-Evans rats [1]; 5 mg/kg-treated group,126 ± 20 mm Hg
same,pH (arterial),male Long-Evans rats [1]; 5 mg/kg-treated group,7.36
same,MABP Ischemia,male Long-Evans rats [1]; 5 mg/kg-treated group,91 ± 12 mm Hg
same,MABP Steady State,male Long-Evans rats [1]; 5 mg/kg-treated group,78 ± 5 mm Hg
same,PaCO2,male Long-Evans rats [1]; 10 mg/kg-treated group,39.3 mm Hg
same,PaO2,male Long-Evans rats [1]; 10 mg/kg-treated group,125 ± 16 mm Hg
same,pH (arterial),male Long-Evans rats [1]; 10 mg/kg-treated group,7.34
same,MABP Ischemia,male Long-Evans rats [1]; 10 mg/kg-treated group,90 ± 14 mm Hg
same,MABP Steady State,male Long-Evans rats [1]; 10 mg/kg-treated group,80 ± 9 mm Hg
same,PaCO2,male Long-Evans rats [1]; 20 mg/kg-treated group,41.3 mm Hg
same,PaO2,male Long-Evans rats [1]; 20 mg/kg-treated group,122 ± 14 mm Hg
same,pH (arterial),male Long-Evans rats [1]; 20 mg/kg-treated group,7.35
same,MABP Ischemia,male Long-Evans rats [1]; 20 mg/kg-treated group,91 ± 12 mm Hg
same,MABP Steady State,male Long-Evans rats [1]; 20 mg/kg-treated group,79 ± 10 mm Hg
same,PaCO2,male Long-Evans rats [1]; 40 mg/kg-treated group,39.5 mm Hg
same,PaO2,male Long-Evans rats [1]; 40 mg/kg-treated group,137 ± 17 mm Hg
same,pH (arterial),male Long-Evans rats [1]; 40 mg/kg-treated group,7.33
same,MABP Ischemia,male Long-Evans rats [1]; 40 mg/kg-treated group,88 ± 12 mm Hg
same,MABP Steady State,male Long-Evans rats [1]; 40 mg/kg-treated group,78 ± 4 mm Hg
same,"relative blood flow in the right parietal cortex, of the baseline",male Long-Evans rats [2]; 5 mg/kg-treated group,18.7±7.4%
same,"relative blood flow in the right parietal cortex, of the baseline",male Long-Evans rats [2]; 10 mg/kg-treated group,21.4±7.7%
same,"relative blood flow in the right parietal cortex, of the baseline",male Long-Evans rats [2]; 40 mg/kg-treated group,19.3±11.2%
